{
  "source": "the supplement of paper PMC6414424",
  "note": "Structures can show the parent of a compound that is named as a salt. ± gives the standard deviation of the averaged measurements. The list shows a part of the results.",
  "data": [
    {"system": "APPdp1-6 iPSC-derived neurons", "experiment": "pThr231Tau/total Tau ratio Z-score vs DMSO vehicle wells; higher = more pThr231Tau relative to total Tau", "conditions": "5 µM; treatment time 5 days", "values": [
      {"smiles": "CCOC(=O)COc1ccc2c(=O)cc(-c3ccccc3)oc2c1", "pThr231Tau/total Tau ratio Z-score": "0.62 ± 0.75"},
      {"smiles": "CCCC1C(=O)N2C(N(C)C)=Nc3ccc(C)cc3N2C1=O", "note": "(stereo not given) [Prestw-1003]", "pThr231Tau/total Tau ratio Z-score": "1.16 ± 1.6"},
      {"smiles": "Clc1ccc(C(Cn2ccnc2)OCc2ccsc2Cl)c(Cl)c1", "note": "(stereo not given) [Prestw-1184]", "pThr231Tau/total Tau ratio Z-score": "-1.18 ± 0.56"},
      {"smiles": "C[C@](N)(Cc1ccc(O)c(O)c1)C(=O)O", "note": "[Prestw-326]", "pThr231Tau/total Tau ratio Z-score": "-0.523 ± 1.1"},
      {"smiles": "c1cnc(N2CCN(Cc3ccc4c(c3)OCO4)CC2)nc1", "note": "[Prestw-980]", "pThr231Tau/total Tau ratio Z-score": "-0.657 ± 0.64"},
      {"smiles": "C1CCC(C(CC2CCCCN2)C2CCCCC2)CC1", "note": "(stereo not given) [Prestw-286]", "pThr231Tau/total Tau ratio Z-score": "-2.14 ± 1.2"},
      {"smiles": "CCc1nc(N)nc(N)c1-c1ccc(Cl)cc1", "note": "[Prestw-37]", "pThr231Tau/total Tau ratio Z-score": "-0.00774 ± 0.15"},
      {"smiles": "CC(=O)[C@@]1(O)CC[C@H]2[C@@H]3C[C@H](C)C4=CC(=O)C=C[C@]4(C)[C@@]3(F)[C@@H](O)C[C@@]21C", "note": "[Prestw-718]", "pThr231Tau/total Tau ratio Z-score": "-0.473 ± 0.8"},
      {"smiles": "CC(C)NCC(O)COc1ccc(CCOCC2CC2)cc1", "note": "(stereo not given) [Prestw-382]", "pThr231Tau/total Tau ratio Z-score": "1.04 ± 1.1"},
      {"smiles": "COc1cc(C(=O)NCc2ccc(OCCN(C)C)cc2)cc(OC)c1OC", "note": "[Prestw-80]", "pThr231Tau/total Tau ratio Z-score": "0.252 ± 0.03"},
      {"smiles": "O=C(O)CCNC(=O)c1ccc(N=Nc2ccc(O)c(C(=O)O)c2)cc1", "note": "[Prestw-730]", "pThr231Tau/total Tau ratio Z-score": "0.251 ± 1.4"},
      {"smiles": "Cc1cc(C(C)(C)C)c(O)c(C(C)(C)C)c1", "pThr231Tau/total Tau ratio Z-score": "0.876 ± 0.15"},
      {"smiles": "COc1ccc(-c2cc(=S)ss2)cc1", "note": "[Prestw-1223]", "pThr231Tau/total Tau ratio Z-score": "0.046 ± 0.55"},
      {"smiles": "O=C(O)c1cn(C2CC2)c2cc(N3CCNCC3)c(F)cc2c1=O", "note": "[Prestw-113]", "pThr231Tau/total Tau ratio Z-score": "0.579 ± 0.6"},
      {"smiles": "COC(=O)Nc1nc2ccc(Sc3ccccc3)cc2[nH]1", "note": "[Prestw-210]", "pThr231Tau/total Tau ratio Z-score": "-3.41 ± 0.85"},
      {"smiles": "Nc1ccccc1S(N)(=O)=O", "note": "[Prestw-913]", "pThr231Tau/total Tau ratio Z-score": "4 ± 7.1"},
      {"smiles": "COc1ccccc1Oc1c(NS(=O)(=O)c2ccc(C(C)(C)C)cc2)nc(-c2ncccn2)nc1OCCO", "note": "[Prestw-1244]", "pThr231Tau/total Tau ratio Z-score": "-0.414 ± 0.71"},
      {"smiles": "OCc1cccnc1", "note": "[NICOTINYL TARTRATE    Therap cat: vasodilator]", "pThr231Tau/total Tau ratio Z-score": "1.37 ± 0.8"},
      {"smiles": "CN1CCC[C@@H]1Cc1c[nH]c2ccc(CCS(=O)(=O)c3ccccc3)cc12", "note": "[ELETRIPTAN HYDROBROMIDE, 5-HT agonist, anti-migrane]", "pThr231Tau/total Tau ratio Z-score": "0.462 ± 1.1"},
      {"smiles": "CC(C)[N+](C)(CCOC(=O)C1c2ccccc2Oc2ccccc21)C(C)C", "note": "[Prestw-827]", "pThr231Tau/total Tau ratio Z-score": "0.38 ± 1.8"},
      {"smiles": "CCC[C@@H]1C[C@@H](C(=O)N[C@@H]([C@H]2O[C@H](SC)[C@H](O)[C@@H](O)[C@H]2O)[C@H](C)Cl)N(C)C1", "note": "[Prestw-137]", "pThr231Tau/total Tau ratio Z-score": "4.67 ± 0.32"},
      {"smiles": "O=C(N[C@H](CO)[C@H](O)c1ccc([N+](=O)[O-])cc1)C(Cl)Cl", "note": "[Prestw-31]", "pThr231Tau/total Tau ratio Z-score": "1.16 ± 0.24"},
      {"smiles": "O=C(O)CCNC(=O)c1ccccc1", "pThr231Tau/total Tau ratio Z-score": "1.94 ± 2"},
      {"smiles": "C[n+]1c2cc(N)ccc2cc2ccc(N)cc21", "pThr231Tau/total Tau ratio Z-score": "-2.84 ± 1.4"},
      {"smiles": "Cc1ccc2c(c1)c1c3n2CCNC3CCC1", "note": "(stereo not given) [Prestw-973]", "pThr231Tau/total Tau ratio Z-score": "-0.413 ± 0.56"},
      {"smiles": "C=C1/C(=C\\C=C2/CCC[C@]3(C)[C@@H]([C@H](C)CCCC(C)C)CC[C@@H]23)C[C@@H](O)C[C@@H]1O", "note": "[Prestw-1211]", "pThr231Tau/total Tau ratio Z-score": "-0.506 ± 0.69"},
      {"smiles": "CCOc1ccc2ccccc2c1C(=O)N[C@@H]1C(=O)N2[C@@H]1SC(C)(C)[C@@H]2C(=O)O", "note": "[Prestw-843]", "pThr231Tau/total Tau ratio Z-score": "-0.977 ± 0.84"},
      {"smiles": "CCOc1ccc2ccccc2c1C(=O)N[C@@H]1C(=O)N2[C@@H]1SC(C)(C)[C@@H]2C(=O)O", "note": "[NAFCILLIN SODIUM    Therap cat:  Antibacterial]", "pThr231Tau/total Tau ratio Z-score": "0.905 ± 1.7"},
      {"smiles": "CC(C)(CO)C(O)C(=O)NCCCO", "note": "(stereo not given) [Prestw-22]", "pThr231Tau/total Tau ratio Z-score": "0.588 ± 0.87"},
      {"smiles": "CN(C)C/C=C(/c1ccc(Br)cc1)c1cccnc1", "note": "[Prestw-92]", "pThr231Tau/total Tau ratio Z-score": "1.55 ± 1"},
      {"smiles": "CCN(CC)CCNC(=O)c1cc(Cl)c(N)cc1OC", "note": "[Prestw-209]", "pThr231Tau/total Tau ratio Z-score": "0.579 ± 0.43"},
      {"smiles": "CC1=NN(c2ccccc2)C(=O)C1", "pThr231Tau/total Tau ratio Z-score": "2.12 ± 1.7"},
      {"smiles": "Cn1cnc2c1c(=O)[nH]c(=O)n2C", "note": "[Prestw-874]", "pThr231Tau/total Tau ratio Z-score": "-1.22 ± 0.5"},
      {"smiles": "Cc1c(-c2ccccc2)oc2c(C(=O)OCCN3CCCCC3)cccc2c1=O", "note": "[Prestw-242]", "pThr231Tau/total Tau ratio Z-score": "0.817 ± 0.74"},
      {"smiles": "CCCCCCCCCCCCCCCCCCCCCCO", "note": "[DOCOSANOL, antiviral]", "pThr231Tau/total Tau ratio Z-score": "0.893 ± 0.56"},
      {"smiles": "CN(N=O)C(=O)N[C@@H]1[C@@H](O)[C@H](O)[C@@H](CO)O[C@@H]1O", "note": "[Prestw-732]", "pThr231Tau/total Tau ratio Z-score": "-0.79 ± 0.67"},
      {"smiles": "NCCCC(=O)O", "note": "[Gamma-Aminobutyric acid]", "pThr231Tau/total Tau ratio Z-score": "1.7 ± 0.12"},
      {"smiles": "O=C(OC1C[C@@H]2CC3C[C@H](C1)N2CC3=O)c1c[nH]c2ccccc12", "note": "(stereo not given in full) [Prestw-1510]", "pThr231Tau/total Tau ratio Z-score": "0.253 ± 0.27"},
      {"smiles": "CN[C@@H]1[C@@H](O[C@H]2O[C@H](CO)[C@@H](N)[C@H](O)[C@H]2O)OC2C[C@@H](N)[C@@H](O[C@H]3[C@H](O)[C@@H](O)[C@H](N)C[C@@H]3N)OC2[C@@H]1O", "note": "(stereo not given in full) [Prestw-1005]", "pThr231Tau/total Tau ratio Z-score": 0.402},
      {"smiles": "C#Cc1cccc(Nc2ncnc3cc(OCCOC)c(OCCOC)cc23)c1", "note": "[Prestw-1242]", "pThr231Tau/total Tau ratio Z-score": "-1.74 ± 0.49"},
      {"smiles": "CN[C@@H]1[C@H](O[C@H]2[C@H](O[C@H]3[C@H](O)[C@@H](O)[C@H](N=C(N)N)[C@@H](O)[C@@H]3N=C(N)N)O[C@@H](C)[C@]2(O)CO)O[C@@H](CO)[C@H](O)[C@H]1O", "note": "[Prestw-159]", "pThr231Tau/total Tau ratio Z-score": "0.347 ± 0.3"},
      {"smiles": "Cc1onc(-c2ccccc2Cl)c1C(=O)N[C@@H]1C(=O)N2[C@@H]1SC(C)(C)[C@@H]2C(=O)O", "note": "[Prestw-186]", "pThr231Tau/total Tau ratio Z-score": "-0.166 ± 2.3"},
      {"smiles": "N[C@@H](C(=O)N[C@@H]1C(=O)N2C(C(=O)O)=C(Cl)CC[C@H]12)c1ccccc1", "note": "[Prestw-1431]", "pThr231Tau/total Tau ratio Z-score": "-0.9929 ± 0.0025"},
      {"smiles": "NS(=O)(=O)c1cc2c(cc1Cl)NC=NS2(=O)=O", "note": "[Prestw-251]", "pThr231Tau/total Tau ratio Z-score": "-0.393 ± 0.52"},
      {"smiles": "N#Cc1ccc(C2CCCc3cncn32)cc1", "note": "(stereo not given) [Prestw-1515]", "pThr231Tau/total Tau ratio Z-score": "-0.689 ± 0.046"},
      {"smiles": "Nc1ccc(S(=O)(=O)[O-])cc1.Nc1ccc(S(=O)(=O)[O-])cc1.O.O.O.O.[Zn+2]", "note": "[SULFANILATE ZINC, antibacterial]", "pThr231Tau/total Tau ratio Z-score": "0.828 ± 1.1"},
      {"smiles": "CN[C@@H]1[C@H](O)[C@H](NC)[C@H]2O[C@@]3(O)C(=O)C[C@@H](C)O[C@H]3O[C@@H]2[C@H]1O", "note": "[Prestw-804]", "pThr231Tau/total Tau ratio Z-score": "-0.794 ± 0.6"},
      {"smiles": "NS(=O)(=O)c1cc2c(cc1Cl)NC(C(Cl)Cl)NS2(=O)=O", "note": "(stereo not given) [Prestw-825]", "pThr231Tau/total Tau ratio Z-score": "0.217 ± 0.55"},
      {"smiles": "C/C(=C(/CCO)SSCC1CCCO1)N(C=O)Cc1cnc(C)nc1N", "note": "(stereo not given) [Prestw-1007]", "pThr231Tau/total Tau ratio Z-score": "0.676 ± 0.43"},
      {"smiles": "CC(=O)O[C@H]1C(=O)[C@@]2(C)[C@H]([C@H](OC(=O)c3ccccc3)[C@]3(O)C[C@H](OC(=O)[C@H](O)[C@@H](NC(=O)c4ccccc4)c4ccccc4)C(C)=C1C3(C)C)[C@]1(OC(C)=O)CO[C@@H]1C[C@@H]2O", "note": "[Prestw-155]", "pThr231Tau/total Tau ratio Z-score": "-3.14 ± 0.46"}
    ]}
  ]
}
